Data as given in PubChem BioAssay AID1259308 (NCATS, 2017).
Aim: 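Genes whose loss raises luciferase production in HEK293 cells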 (primary screen). Cells: human HEK293 embryonic kidney cells stably expressing firefly luciferase (HEK-CMV-Luc2-Hygro). Knock-down reagent: single siRNA against human genes, 0.8 pmol siRNA per well. Time to read-out: 72 h. Measured: 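Reporter luminescence and viable-cell signal on separate replicate plates, given as percent of non-targeting control and median/MAD z-scores, plus per-cell luciferase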. Reading the numbers: total luciferase, z-score and total luciferase, % of control: higher = more reporter protein produced; luciferase per cell, z-score: higher = more reporter output per viable cell; viable cells, % of control: higher = more viable cells. Hit rule: 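Active when the median/MAD z-score for overall luciferase is greater than 3; a gene was taken forward for validation with new siRNAs if at least two of its three siRNAs passed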. Calls: active = raised luciferase; inactive = no rise.
Here is an unselected part of about 59,000 deposited reagents. About 1,510 of all reagents (2.6%) were called active. 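Calls use total luciferase alone and ignore viability, so some active siRNAs may act by altering cell number.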 Reagents against one gene are numbered here.

gene knocked down	reagent	total luciferase, z-score	total luciferase, % of control	luciferase per cell, z-score	viable cells, % of control	call
TTC39A	1	-0.736	67.2	-0.424	84	inactive
TTC39A	2	0.0901	83.7	0.944	72.9	inactive
TTC39A	3	0.438	90.6	0.988	78	inactive
KLRB1	1	-1.18	58.4	-0.866	82	inactive
KLRB1	2	3.05	142	2.31	86.6	active
KLRB1	3	0.656	94.9	1.39	73.6	inactive
PMCH	1	1.63	114	0.896	101	inactive
PMCH	2	-2.31	36	-1.22	55.5	inactive
PMCH	3	0.723	96.3	0.135	104	inactive
EPM2A	1	-1.08	60.5	-1.05	89.1	inactive
EPM2A	2	-0.249	76.9	-0.481	97.6	inactive
EPM2A	3	-0.24	77.1	0.136	83.1	inactive
ABCA1	1	-0.18	78.3	-0.66	104	inactive
ABCA1	2	-1.02	61.6	-1.36	98.4	inactive
ABCA1	3	0.409	90	0.727	83.1	inactive
CLEC4G	1	-0.0736	80.4	0.604	76.6	inactive
CLEC4G	2	1.1	104	1.01	88.8	inactive
CLEC4G	3	-0.869	64.6	-0.607	84.7	inactive
CSF1	1	-1.48	52.5	-0.528	67.5	inactive
CSF1	2	0.445	90.7	0.16	97.2	inactive
CSF1	3	1.5	112	1.2	91.1	inactive
FAHD1	1	-0.123	79.4	-0.918	113	inactive
FAHD1	2	-1.17	58.7	-1.35	93.5	inactive
FAHD1	3	1.7	116	0.61	110	inactive
STK11IP	1	-1.35	55	-0.992	79.9	inactive
STK11IP	2	0.841	98.6	0.33	101	inactive
STK11IP	3	-0.398	74	-1.22	114	inactive
ERCC6L2	1	0.909	100	1.51	75	inactive
ERCC6L2	2	-0.321	75.5	0.543	73.1	inactive
ERCC6L2	3	-1.02	61.6	-0.975	88.9	inactive
ERCC6L2	4	-0.12	79.5	0.313	81.8	inactive
ERCC6L2	5	-2.16	39	-2.08	75.2	inactive
ERCC6L2	6	-1.98	42.5	-2.15	83.6	inactive
MYOZ2	1	0.694	95.7	0.866	85.1	inactive
MYOZ2	2	0.457	91	-0.063	103	inactive
MYOZ2	3	-0.531	71.3	-0.546	92	inactive
ETFRF1	1	-0.325	75.4	-0.205	88.9	inactive
ETFRF1	2	-0.389	74.1	0.165	79.3	inactive
ETFRF1	3	-1.89	44.3	-1.77	78.9	inactive
VOPP1	1	0.22	86.3	0.523	84	inactive
VOPP1	2	0.0739	83.4	-0.4	103	inactive
VOPP1	3	0.748	96.8	-0.0713	110	inactive
ADGRV1	1	0.0776	83.4	-0.615	110	inactive
ADGRV1	2	-0.354	74.8	-0.803	103	inactive
ADGRV1	3	0.0825	83.5	-0.341	102	inactive
STAC3	1	0.53	92.4	0.879	82	inactive
STAC3	2	1.6	114	1.56	84.4	inactive
STAC3	3	-1.47	52.7	-0.423	65.8	inactive
TEPSIN	1	0.708	96	0.853	85.7	inactive
TEPSIN	2	-0.0344	81.2	-0.0383	91.7	inactive
TEPSIN	3	0.397	89.8	0.361	91.2	inactive
TREML4	1	1.23	106	0.546	103	inactive
TREML4	2	0.881	99.4	1.08	83.6	inactive
TREML4	3	-0.202	77.9	0.342	79.5	inactive
SLC6A15	1	-1.65	49	-0.216	58	inactive
SLC6A15	2	0.172	85.3	1.14	70.5	inactive
SLC6A15	3	-0.231	77.3	-0.091	88.5	inactive
ANO8	1	0.649	94.8	0.924	83.1	inactive
ANO8	2	-0.757	66.8	-0.512	85.5	inactive
ANO8	3	-0.673	68.5	-1.23	106	inactive
SMPDL3A	1	-1.14	59.1	-1.12	88.7	inactive
SMPDL3A	2	-1.32	55.7	-1.88	102	inactive
SMPDL3A	3	0.288	87.6	-0.0521	99.3	inactive
CLSTN1	1	-0.204	77.8	0.58	74.6	inactive
CLSTN1	2	-0.397	74	-0.575	96.2	inactive
CLSTN1	3	-0.451	72.9	-0.631	96.2	inactive
MRPL41	1	-1.43	53.4	-1.44	87.1	inactive
MRPL41	2	0.151	84.9	0.644	80.1	inactive
MRPL41	3	-0.758	66.8	-0.307	80.9	inactive
ZNF212	1	0.498	91.8	0.886	81.2	inactive
ZNF212	2	0.682	95.4	0.667	89.5	inactive
ZNF212	3	2.44	130	1.66	94.1	inactive
BRD2	1	-2.17	38.7	-2.88	92.3	inactive
BRD2	2	-0.908	63.8	-0.478	80.9	inactive
BRD2	3	-1.43	53.4	-1.23	82.6	inactive
